According to PMC6054203:
These are yes or no findings as the source states them, for the method shown. For part of these data: A result given as binding can be weak or reduced; the word gives no strength. Tags and fused reporters may be left off the sequences shown. For part of these data: In cells and extracts the contact can be indirect.

T1: YFP-CIPK9 (Arabidopsis thaliana) (UniProt Q9MAM1)
T1 sequence: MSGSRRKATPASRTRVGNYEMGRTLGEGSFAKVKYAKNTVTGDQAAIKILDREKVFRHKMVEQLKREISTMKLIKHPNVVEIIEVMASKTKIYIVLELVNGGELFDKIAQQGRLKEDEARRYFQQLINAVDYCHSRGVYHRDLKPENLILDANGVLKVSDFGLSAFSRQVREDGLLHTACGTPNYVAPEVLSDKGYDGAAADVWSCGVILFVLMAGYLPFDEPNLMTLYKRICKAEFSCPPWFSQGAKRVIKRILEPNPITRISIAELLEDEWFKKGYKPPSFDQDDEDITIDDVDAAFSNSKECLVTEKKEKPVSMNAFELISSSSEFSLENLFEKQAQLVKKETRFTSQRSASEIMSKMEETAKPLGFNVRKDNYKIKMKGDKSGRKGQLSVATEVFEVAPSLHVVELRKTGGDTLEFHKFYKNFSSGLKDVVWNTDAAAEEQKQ


How the values were obtained:
[1] = biological target: T1, YFP-CIPK9 (Arabidopsis thaliana); assay: FRET or BRET; FRET by acceptor bleaching, CFP and YFP fusions co-expressed in N. benthamiana cells, confocal microscopy; at least seven cells
[2] = biological target: AP2C1 deletion fragment KIM (kinase-interacting motif domain), two-hybrid fusion (Arabidopsis thaliana); assay: two-hybrid; yeast strain AH109 co-transformed with AD (pGAD.GH) and BD (pGBT9.BS) fusions; growth on SC-LWH and on SC-LWH with 0.5 and 3.0 mM 3-AT
[3] = biological target: AP2C1 deletion fragment K2 (lacks the KIM domain), two-hybrid fusion (Arabidopsis thaliana); assay: as above

binding [1] | binding [2] | binding [3] | Molecule
no binding |  |  | K2 fragment of AP2C1 (lacks the KIM domain) fused to cyan fluorescent protein (Arabidopsis thaliana) (domain or fragment)
 | binds | no binding | CBL-interacting protein kinase 9 (CIPK9), two-hybrid fusion (enzyme, UniProt Q9MAM1 1-447) MSGSRRKATPASRTRVGNYEMGRTLGEGSFAKVKYAKNTVTGDQAAIKILDREKVFRHKMVEQLKREISTMKLIKHPNVVEIIEVMASKTKIYIVLELVNGGELFDKIAQQGRLKEDEARRYFQQLINAVDYCHSRGVYHRDLKPENLILDANGVLKVSDFGLSAFSRQVREDGLLHTACGTPNYVAPEVLSDKGYDGAAADVWSCGVILFVLMAGYLPFDEPNLMTLYKRICKAEFSCPPWFSQGAKRVIKRILEPNPITRISIAELLEDEWFKKGYKPPSFDQDDEDITIDDVDAAFSNSKECLVTEKKEKPVSMNAFELISSSSEFSLENLFEKQAQLVKKETRFTSQRSASEIMSKMEETAKPLGFNVRKDNYKIKMKGDKSGRKGQLSVATEVFEVAPSLHVVELRKTGGDTLEFHKFYKNFSSGLKDVVWNTDAAAEEQKQ
